Results: article PMC11519634
Positions count from the first letter of the chain named. No constants are given. Whether binding was seen depends on the method and setting. Binding seen in cells or lysates may run through a third protein. Some binding calls cover weakened binding; strength is not graded here. For some of these results: Where a sequence is shown, tags or fusion partners need not be part of it.

Amino acid sequences for entries named in this document (tags omitted).
UniProt Q93008: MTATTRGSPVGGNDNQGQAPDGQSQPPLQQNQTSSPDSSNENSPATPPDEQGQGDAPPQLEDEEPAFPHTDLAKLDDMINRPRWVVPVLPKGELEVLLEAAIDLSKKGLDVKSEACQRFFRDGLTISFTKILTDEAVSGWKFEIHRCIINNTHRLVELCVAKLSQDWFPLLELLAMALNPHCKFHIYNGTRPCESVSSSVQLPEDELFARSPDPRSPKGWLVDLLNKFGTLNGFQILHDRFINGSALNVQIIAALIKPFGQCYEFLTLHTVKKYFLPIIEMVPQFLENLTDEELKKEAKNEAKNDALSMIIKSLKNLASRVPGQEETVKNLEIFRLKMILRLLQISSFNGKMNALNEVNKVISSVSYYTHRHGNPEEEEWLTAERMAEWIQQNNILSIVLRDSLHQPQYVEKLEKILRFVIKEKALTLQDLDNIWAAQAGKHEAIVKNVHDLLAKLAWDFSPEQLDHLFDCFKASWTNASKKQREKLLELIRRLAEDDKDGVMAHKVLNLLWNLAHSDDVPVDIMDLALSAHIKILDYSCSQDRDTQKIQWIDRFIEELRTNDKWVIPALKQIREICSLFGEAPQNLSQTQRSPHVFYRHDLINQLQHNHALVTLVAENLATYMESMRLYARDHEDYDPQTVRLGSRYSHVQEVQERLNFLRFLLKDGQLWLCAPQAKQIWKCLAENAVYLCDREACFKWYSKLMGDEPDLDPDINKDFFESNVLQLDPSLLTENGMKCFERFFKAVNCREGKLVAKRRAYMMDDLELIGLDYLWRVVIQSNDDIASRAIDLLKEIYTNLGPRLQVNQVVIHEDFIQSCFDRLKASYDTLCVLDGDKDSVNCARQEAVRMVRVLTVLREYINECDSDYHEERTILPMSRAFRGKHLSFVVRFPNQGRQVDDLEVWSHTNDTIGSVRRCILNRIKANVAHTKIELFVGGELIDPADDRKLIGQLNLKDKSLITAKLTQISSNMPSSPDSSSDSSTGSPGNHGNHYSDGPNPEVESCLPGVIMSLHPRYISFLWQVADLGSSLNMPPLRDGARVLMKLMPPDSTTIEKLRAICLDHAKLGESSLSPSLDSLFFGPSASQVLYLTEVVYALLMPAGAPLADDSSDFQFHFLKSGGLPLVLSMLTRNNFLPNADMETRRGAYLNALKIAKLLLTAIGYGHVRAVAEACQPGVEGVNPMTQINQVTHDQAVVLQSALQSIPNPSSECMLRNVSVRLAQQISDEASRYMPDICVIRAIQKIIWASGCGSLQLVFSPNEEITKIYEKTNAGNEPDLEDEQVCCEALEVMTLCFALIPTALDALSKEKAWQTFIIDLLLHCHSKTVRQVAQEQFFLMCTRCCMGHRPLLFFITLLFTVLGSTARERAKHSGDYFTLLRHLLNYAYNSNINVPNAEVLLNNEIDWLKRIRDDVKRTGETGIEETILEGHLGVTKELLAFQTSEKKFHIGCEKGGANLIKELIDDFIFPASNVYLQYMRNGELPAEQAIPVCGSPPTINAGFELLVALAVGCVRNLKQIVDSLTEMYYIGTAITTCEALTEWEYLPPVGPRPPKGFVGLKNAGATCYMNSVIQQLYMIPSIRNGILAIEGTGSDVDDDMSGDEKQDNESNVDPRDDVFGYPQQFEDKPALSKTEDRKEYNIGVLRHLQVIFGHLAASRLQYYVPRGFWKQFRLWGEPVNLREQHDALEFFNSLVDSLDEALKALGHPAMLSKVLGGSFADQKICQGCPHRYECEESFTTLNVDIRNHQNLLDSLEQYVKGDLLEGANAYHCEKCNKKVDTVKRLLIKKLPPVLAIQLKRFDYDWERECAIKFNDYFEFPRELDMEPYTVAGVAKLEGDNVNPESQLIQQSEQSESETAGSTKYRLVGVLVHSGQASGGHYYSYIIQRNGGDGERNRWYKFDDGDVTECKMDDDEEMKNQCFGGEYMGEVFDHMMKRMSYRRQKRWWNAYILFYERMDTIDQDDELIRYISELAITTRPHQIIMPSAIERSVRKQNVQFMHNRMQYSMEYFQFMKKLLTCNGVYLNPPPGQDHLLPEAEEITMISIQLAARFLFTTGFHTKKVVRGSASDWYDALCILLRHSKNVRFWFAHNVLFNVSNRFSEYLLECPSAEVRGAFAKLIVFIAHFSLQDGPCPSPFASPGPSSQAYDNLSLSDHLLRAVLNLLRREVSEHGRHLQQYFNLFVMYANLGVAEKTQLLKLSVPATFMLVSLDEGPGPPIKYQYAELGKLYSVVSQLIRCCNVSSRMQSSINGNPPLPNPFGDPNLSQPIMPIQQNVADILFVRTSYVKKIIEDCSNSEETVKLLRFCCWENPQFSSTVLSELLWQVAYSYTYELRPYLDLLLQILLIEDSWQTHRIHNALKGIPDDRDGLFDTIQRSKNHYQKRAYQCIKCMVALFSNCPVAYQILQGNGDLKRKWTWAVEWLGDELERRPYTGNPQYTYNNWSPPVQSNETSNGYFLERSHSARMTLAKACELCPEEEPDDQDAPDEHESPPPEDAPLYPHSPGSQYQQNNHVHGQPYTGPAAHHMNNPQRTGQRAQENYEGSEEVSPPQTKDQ

How the values were obtained:
[1] = target: T1, ETS proto-oncogene 1 (Ets-1) (human (endogenous in HCC827OR)) (UniProt P14921); assay: co-IP; endogenous proteins in HCC827OR cells treated with/without xanthohumol for 24 h, then MG132 for 6 h; IP lysis buffer, 1 μg antibody and protein A agarose beads, 4 °C for 24 h; immunoblotting
T1 sequence: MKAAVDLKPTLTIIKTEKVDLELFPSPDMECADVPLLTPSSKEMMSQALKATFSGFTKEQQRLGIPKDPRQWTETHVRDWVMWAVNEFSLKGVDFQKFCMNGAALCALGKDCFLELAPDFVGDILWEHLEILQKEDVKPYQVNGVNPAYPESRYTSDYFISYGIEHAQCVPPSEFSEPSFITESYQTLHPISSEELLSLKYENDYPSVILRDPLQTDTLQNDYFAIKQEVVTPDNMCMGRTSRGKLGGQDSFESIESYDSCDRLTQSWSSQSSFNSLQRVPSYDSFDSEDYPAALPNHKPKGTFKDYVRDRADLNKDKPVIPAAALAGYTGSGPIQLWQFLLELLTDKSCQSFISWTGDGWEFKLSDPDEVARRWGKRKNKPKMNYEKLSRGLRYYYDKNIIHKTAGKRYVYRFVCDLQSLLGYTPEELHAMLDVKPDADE

Flag-Ets-1 T38A = target: T2, Flag-Ets-1 T38A (UniProt P14921); assay: co-IP; Flag-Ets-1 WT, T38A or T38D transfected into HCC827OR cells for 24 h, xanthohumol (3 μM) for 24 h, then MG132 for 6 h; endogenous USP9X; IP lysis buffer, 1 μg antibody and protein A agarose beads, 4 °C for 24 h; immunoblotting
T2 sequence: T1 sequence with T38A

Flag-Ets-1 T38D = target: T3, Flag-Ets-1 T38D (UniProt P14921); assay: as above
T3 sequence: T1 sequence with T38D

Flag-Ets-1 WT = target: T4, Flag-Ets-1 WT (UniProt P14921); assay: as above
T4 sequence: T1 sequence

Measured: binding

USP9X (from UniProt Q93008 1-2554) (enzyme)
binds: all assays above
